Construct, isoform or probe ends are uncertain for at least one entry. For some assays here: At least one verdict was read from the data and is not stated in words by the source.

By UniProt entry, the sequences of proteins in these tests, tags left out.
UniProt P41238, whole entry W121Q: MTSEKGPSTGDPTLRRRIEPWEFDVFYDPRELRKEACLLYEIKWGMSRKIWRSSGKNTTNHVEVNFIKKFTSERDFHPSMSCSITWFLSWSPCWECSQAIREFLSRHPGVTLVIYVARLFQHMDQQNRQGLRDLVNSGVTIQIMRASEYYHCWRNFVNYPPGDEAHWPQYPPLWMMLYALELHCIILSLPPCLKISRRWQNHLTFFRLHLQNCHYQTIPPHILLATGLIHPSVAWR
UniProt P41238, whole entry W121H: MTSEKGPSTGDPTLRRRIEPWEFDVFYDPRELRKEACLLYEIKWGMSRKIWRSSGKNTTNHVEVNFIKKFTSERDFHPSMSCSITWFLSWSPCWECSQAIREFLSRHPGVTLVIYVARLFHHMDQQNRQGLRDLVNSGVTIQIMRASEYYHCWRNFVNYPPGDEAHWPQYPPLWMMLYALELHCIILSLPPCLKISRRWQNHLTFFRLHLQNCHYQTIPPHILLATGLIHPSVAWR
UniProt P41238, whole entry W121A: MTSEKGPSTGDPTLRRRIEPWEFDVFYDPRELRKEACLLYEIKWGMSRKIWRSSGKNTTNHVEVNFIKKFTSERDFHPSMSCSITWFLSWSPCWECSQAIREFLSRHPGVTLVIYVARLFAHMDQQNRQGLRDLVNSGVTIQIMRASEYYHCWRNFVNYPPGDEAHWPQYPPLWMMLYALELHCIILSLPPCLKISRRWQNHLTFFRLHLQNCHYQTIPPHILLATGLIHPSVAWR
UniProt P41238, whole entry F120A: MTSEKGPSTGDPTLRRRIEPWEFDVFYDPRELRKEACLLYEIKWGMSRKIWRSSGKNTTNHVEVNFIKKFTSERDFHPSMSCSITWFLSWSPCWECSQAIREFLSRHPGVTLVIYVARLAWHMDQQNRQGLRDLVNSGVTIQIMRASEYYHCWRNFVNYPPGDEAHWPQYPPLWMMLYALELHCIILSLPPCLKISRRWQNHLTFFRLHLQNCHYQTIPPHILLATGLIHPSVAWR

Holding throughout (assay): EMSA
(A gel shift assay detects complexes by their altered migration in electrophoresis.)

Data set [1] concerns the target MBP-APO1 W121Q (aggregated form) (human) (UniProt P41238). The following applies: range given for four mutants on DNA and RNA, 50 nM nucleic acid, 20 mM HEPES, 50 mM NaCl, 5 mM DTT, 10% glycerol (0.4 U RNase inhibitor for RNA), pH not stated for EMSA (HEPES pH 7.5 in protein buffers), recombinant protein, residues 1-236, protein details: MBP (N-terminal fusion).
The target of data set [2] is MBP-APO1 mXT (aggregated form) M46A,R48S,I80T,W121A,L173A,W199A,F205A,del1-14 (human) (UniProt P41238). The following applies: slightly stronger than WT, Kd only plotted; 50 nM nucleic acid, 20 mM HEPES, 50 mM NaCl, 5 mM DTT, 10% glycerol (0.4 U RNase inhibitor for RNA), pH not stated for EMSA (HEPES pH 7.5 in protein buffers); recombinant protein; residues 15-236; protein details: MBP (N-terminal fusion); label: 5' FAM; single-stranded DNA.

The target in data set [3] is MBP-APO1 mXT (dimeric form) M46A,R48S,I80T,W121A,L173A,W199A,F205A,del1-14 (human) (UniProt P41238). The following applies: slightly stronger than WT, Kd only plotted; 50 nM nucleic acid, 20 mM HEPES, 50 mM NaCl, 5 mM DTT, 10% glycerol (0.4 U RNase inhibitor for RNA), pH not stated for EMSA (HEPES pH 7.5 in protein buffers); recombinant protein; residues 15-236; protein details: MBP (N-terminal fusion); label: 5' FAM; single-stranded DNA.

Data set [4] concerns the target MBP-APO1 W121H (aggregated form) (human) (UniProt P41238). The following applies: range given for four mutants on DNA and RNA, 50 nM nucleic acid, 20 mM HEPES, 50 mM NaCl, 5 mM DTT, 10% glycerol (0.4 U RNase inhibitor for RNA), pH not stated for EMSA (HEPES pH 7.5 in protein buffers), recombinant protein, residues 1-236, protein details: MBP (N-terminal fusion).
For data set [5], the target named is MBP-APO1 W121A (aggregated form) (human) (UniProt P41238). The following applies: range given for four mutants on DNA and RNA, 50 nM nucleic acid, 20 mM HEPES, 50 mM NaCl, 5 mM DTT, 10% glycerol (0.4 U RNase inhibitor for RNA), pH not stated for EMSA (HEPES pH 7.5 in protein buffers), recombinant protein, residues 1-236, protein details: MBP (N-terminal fusion).

The target of data set [6] is MBP-APO1 F120A (aggregated form) (human) (UniProt P41238). The following applies: range given for four mutants on DNA and RNA, 50 nM nucleic acid, 20 mM HEPES, 50 mM NaCl, 5 mM DTT, 10% glycerol (0.4 U RNase inhibitor for RNA), pH not stated for EMSA (HEPES pH 7.5 in protein buffers), recombinant protein, residues 1-236, protein details: MBP (N-terminal fusion).
Data set [7] concerns the target MBP-APO1 WT (aggregated form) (human) (UniProt P41238). The following applies: no A1CF; 50 nM nucleic acid, 20 mM HEPES, 50 mM NaCl, 5 mM DTT, 10% glycerol (0.4 U RNase inhibitor for RNA), pH not stated for EMSA (HEPES pH 7.5 in protein buffers); recombinant protein; residues 1-236; protein details: MBP (N-terminal fusion, pMAL-C5X).
Setting [8] is: label: 5' FAM, single-stranded DNA.

Consider “ATTATTATTATTCAAATTTATTTATTTATTTATGGTGTTTGGTGTGGTTG [FAM-50 ssDNA]”, for which the binding result in data set [1] (setting [8]), in data set [2], in data set [3], in data set [4] (setting [8]), in data set [5] (setting [8]) and in data set [6] (setting [8]) was “binds” each time.

As usually defined, the Kd is a measure of binding affinity in units of concentration. As for “GGAUAUAUGAUACAAUUUGAUCAGUAUAUUAAAGAUAGUUAUGAUUUACAUGAUU [APOB RNA 55 nt]”, the binding result in data set [1] (no A1CF), in data set [4] (no A1CF), in data set [5] (no A1CF) and in data set [6] (no A1CF) was “binds” throughout. For the same sequence, the Kd in data set [7] is 230 nM.

The values above are taken from article PMC7556403.
